Results reported in patent US10934439B2, “Additives for coating compositions and related methods” (Massachusetts Institute of Technology, priority 2017, dated 2021).
For at least one compound, name, drawing or mass did not settle the structure. Some entries share one result that the patent states for a list of compounds.

Assay: Potentiodynamic polarization (Tafel tests) of galvanized steel in 3.5% NaCl with additives
Details: for CTDPA at which IE values plateau: pH 5.6, 25° C (FIG. 18)
Description: The electrochemical open-to-air cell (PTC1™ Paint Test Cell, Gamry Instruments, Warminster, Pa.) was utilized for the potentiodynamic polarization (Tafel tests) and electrochemical impedance spectroscopy experiments. The electrochemical cell was composed of working electrode made of galvanized steel (zinc-galvanized sheets of type B carbon steel, ASTM A653, total thickness 0.305 mm, working area 2.2 cm^2 or 15.2 cm^2, McMaster Carr Supply Co., Robbinsvill, N.J.), reference Ag/AgCl electrode, and Pt wire auxiliary electrode (BASK) Corp., West Lafayette, Ind.). Prior to the immersion in the electrolyte (3.5% NaCl, pH adjusted to 5.25-5.3, 40 mL), the working electrodes were washed by acetone, ethanol, dried by nitrogen flow and polished with P1200 grit.^24 The working electrode was immersed into electrolyte containing the tested compound at a given concentration with desired pH at 25° C. for 60 min prior to each measurement. […] The carbon steel used herein was coated with the average minimum coating thickness per ASTM A653 being 2.0 mils (0.0508 mm) per surface. Tafel tests (ASTM GS) were conducted using a Parstat PMC-2000 multichannel potentiostat equipped with Versa Studio 2.50.3 software (Princeton Applied Research, Oak Ridge, Tenn.). Tafel tests were modeled with a ZSIMPWIN™ software for complex nonlinear least square analyses fitting the circuit models of the electrode interface to the Nyquist amplitude of 10 mV at the open circuit potential in the frequency range of 100 kHz to 0.2 Hz. Parameters for Tafel tests were as follows: initial potential, −1.25 V (vs reference); final potential, −0.45 V; scan properties: step height, 0.5 mV, step time, 2 s. In a series of measurements with the corrosion inhibiting additives, a range of the additive concentrations was studied and the scan range was set from 150 mV below the open circuit voltage (OCV) to 200 mV more positive than the OCV, with three measurements for each condition. The range in these measurements was limited in order to minimize the cathodic polarization causing local pH changes.
In the vicinity of Ecorr both currents are present in the specimen, but experimentally it is possible to measure only the net current. The net current has a single measurable polarity, either positive or negative. At Ecorr the net measured current is exactly zero. The corrosion current (icorr) is expressed as (for definitions, see FIG. 13):
[formula] where E.W. is the equivalent weight of the corroding species, g. In this case, the corroding species is Zn, so E.W.=32.7 g. Icorr, is the corrosion current density in μA/cm^2, and d is the density of the corroding species. Density of zinc is 7.140 g/cm^3.
From the icorr values, inhibitor efficiencies (IE, %) were calculated as (equation (1)): […]

[1] = 25° C, pH 5.3, [Mg2+] 40.6, DTDPA 40.6 meq/L

Compound	Corrosion rate [1] [mpy]	Icorr (corrosion current density) [1] [μA/cm^2]	CTDPA at which IE values plateau [mM]
O=C(O)CCSSCCC(=O)O [MgDTDPA, magnesium dithiodipropionate]	37.8	63.5	–
magnesium acetate thiodipropionate [MgAcTDPA]	–	–	> 30
magnesium thiodipropionate [MgTDPA1:1]	–	–	> 30
